Measured values from publication PMC5385220.
These are yes or no findings as the source states them, for the method shown. In cells and extracts the contact can be indirect. Some results given as binding are weak or reduced against the parent protein; the word gives no strength.

Protein sequences, listed by entry. Tags and fused reporters are not part of them.
UniProt Q13526: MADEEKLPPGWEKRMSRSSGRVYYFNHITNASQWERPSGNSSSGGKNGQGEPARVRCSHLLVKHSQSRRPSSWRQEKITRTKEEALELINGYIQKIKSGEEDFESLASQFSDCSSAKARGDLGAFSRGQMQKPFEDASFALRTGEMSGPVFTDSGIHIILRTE
UniProt Q9BYB0: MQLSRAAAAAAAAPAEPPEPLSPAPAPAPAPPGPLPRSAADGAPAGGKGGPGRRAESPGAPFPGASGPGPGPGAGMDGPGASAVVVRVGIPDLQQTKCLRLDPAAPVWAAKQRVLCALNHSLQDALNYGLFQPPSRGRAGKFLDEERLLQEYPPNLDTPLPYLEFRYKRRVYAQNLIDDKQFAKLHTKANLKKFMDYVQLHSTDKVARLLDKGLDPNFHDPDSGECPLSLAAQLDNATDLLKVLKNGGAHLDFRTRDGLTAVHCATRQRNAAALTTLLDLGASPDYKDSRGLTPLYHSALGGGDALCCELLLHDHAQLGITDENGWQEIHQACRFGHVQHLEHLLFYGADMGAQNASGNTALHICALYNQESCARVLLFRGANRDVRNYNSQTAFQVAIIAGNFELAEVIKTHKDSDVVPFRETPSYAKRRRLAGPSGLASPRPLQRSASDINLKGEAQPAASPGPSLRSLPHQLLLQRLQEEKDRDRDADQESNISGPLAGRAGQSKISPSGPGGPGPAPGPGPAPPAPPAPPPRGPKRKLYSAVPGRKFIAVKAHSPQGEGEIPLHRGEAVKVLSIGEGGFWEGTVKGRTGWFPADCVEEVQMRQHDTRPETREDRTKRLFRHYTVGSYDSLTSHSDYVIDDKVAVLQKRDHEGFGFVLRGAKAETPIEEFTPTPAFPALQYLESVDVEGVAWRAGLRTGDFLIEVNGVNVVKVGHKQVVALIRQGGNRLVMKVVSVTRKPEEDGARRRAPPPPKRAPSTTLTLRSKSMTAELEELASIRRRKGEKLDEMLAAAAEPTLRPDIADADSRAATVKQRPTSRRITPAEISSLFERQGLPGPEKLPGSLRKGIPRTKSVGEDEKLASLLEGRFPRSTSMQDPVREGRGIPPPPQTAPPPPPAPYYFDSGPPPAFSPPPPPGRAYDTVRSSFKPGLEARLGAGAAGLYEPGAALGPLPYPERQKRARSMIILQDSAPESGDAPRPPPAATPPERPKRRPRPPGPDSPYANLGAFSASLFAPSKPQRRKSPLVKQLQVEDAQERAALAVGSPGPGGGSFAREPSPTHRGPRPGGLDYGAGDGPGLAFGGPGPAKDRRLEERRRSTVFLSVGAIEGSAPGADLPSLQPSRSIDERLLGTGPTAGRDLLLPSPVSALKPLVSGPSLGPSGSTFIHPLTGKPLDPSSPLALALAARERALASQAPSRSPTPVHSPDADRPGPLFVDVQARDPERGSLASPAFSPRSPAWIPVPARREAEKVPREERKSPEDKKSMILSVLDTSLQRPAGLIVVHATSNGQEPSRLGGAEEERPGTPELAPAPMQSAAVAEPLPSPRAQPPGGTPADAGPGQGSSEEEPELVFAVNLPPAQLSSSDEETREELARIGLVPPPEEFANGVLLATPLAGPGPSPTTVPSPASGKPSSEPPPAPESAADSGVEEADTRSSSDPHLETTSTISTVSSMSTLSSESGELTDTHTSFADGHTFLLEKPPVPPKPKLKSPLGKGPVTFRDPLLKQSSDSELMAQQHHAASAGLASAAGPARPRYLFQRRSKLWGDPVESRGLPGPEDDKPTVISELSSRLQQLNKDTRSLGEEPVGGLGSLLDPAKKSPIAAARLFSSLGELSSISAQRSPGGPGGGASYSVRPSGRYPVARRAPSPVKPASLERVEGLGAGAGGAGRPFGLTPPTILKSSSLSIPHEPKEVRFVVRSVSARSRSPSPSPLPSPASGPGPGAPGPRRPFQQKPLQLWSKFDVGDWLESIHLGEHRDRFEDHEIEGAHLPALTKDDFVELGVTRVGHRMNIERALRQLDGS

Biological target: Peptidyl-prolyl cis-trans isomerase NIMA-interacting 1 (human (endogenous in frontal cortical tissue)) (UniProt Q13526)
Assay: co-IP; synaptosomes (200 ug protein) of human control brain cortical tissue solubilised in 50 mM Tris pH 7.5, 100 mM NaCl, 1.5 mM EGTA, 0.1% SDS, 1% Triton X-100; 100,000g supernatant incubated with rabbit anti-Pin1 or anti-Shank3 plus Protein G agarose at 4°C overnight; rabbit IgG as negative control; Western blot

binding: binds
Substance: Shank3 protein (from UniProt Q9BYB0 1-1806)
